Several values for one entry are separate records, joined by “and”; a condition that tells them apart may be missing. Equal values may be shown once. Some of the results follow. Further columns of the screen follow, without active or inactive calls. Compounds called inactive in the main read-out are mostly missing here. Words in brackets tell the shape of the fitted curve; partial curves, single points and poor fits give uncertain potencies.
Test: qHTS Assay to Find Inhibitors of Chronic Active B-Cell Receptor Signaling
Conditions: ABC-DLBCL IkBa-CBG/CBR reporter, luminescence ratio (green luciferase fused to IkBa over red control in TMD8 lymphoma cells), 4 h
Outline: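 Doxycycline induced both beetle luciferases in TMD8 lymphoma cells; IKK-driven degradation limits the IkappaBalpha-fused green signal, while red luminescence normalises for cell number and nonspecific effects. Compounds tested up to 46 uM, 4 hrs.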

[1] = measured here: CBR red luminescence, cell number
[2] = measured here: IkBa-CBG green luminescence

Compound: Cc1ccc(C(=O)NCC(=O)OC(C)C(=O)NCCC2=CCCCC2)cc1C (configuration not stated)
- AC50 [1]: 11.6 µM [rising, partial curve, poor fit]

Compound: Cc1ccc(Sc2c([N+](=O)[O-])c(=O)n(C)c3ccccc23)cc1
- AC50 [1]: 11.2 µM [falling, partial curve, poor fit]

Compound: O=C(Nc1ccc2c(c1)OCCO2)c1oc2ccccc2c1NC(=O)C1CC1
- AC50 [1]: 0.708 µM [falling, full curve]

Compound: C=CCN1C(=O)c2ccc(C(=O)N3CCN(S(=O)(=O)c4ccc(C(C)C)cc4)CC3)cc2C1=O
- AC50 [1]: 1.16 µM [falling, full curve]

Compound: COc1ccc(NC(=O)C2Cc3ccccc3CN2C(=O)c2ccco2)cc1 (configuration not stated)
- AC50 [1]: 2 µM [rising, partial curve, poor fit]

Compound: COc1ccccc1CCNC(=O)NC1CCCCC1
- AC50 [1]: 10 µM [falling, partial curve]

Compound: O=C(O)Cn1cnc2c(oc3ccccc32)c1=O
- AC50 [1]: 12.6 µM [rising, partial curve, poor fit]

Compound: CCN(CC)S(=O)(=O)c1ccc(OC)c(NC(=O)OCc2ccccc2)c1
- AC50 [1]: 11.2 µM [rising, partial curve]
- AC50 [2]: 14.1 µM [falling, partial curve, poor fit]

Compound: O=C(CSc1nc2ccc(Nc3nc(N4CCOCC4)nc(N4CCOCC4)n3)cc2s1)NCc1ccco1
- AC50 [1]: 7.08 µM [falling, partial curve, poor fit]

Compound: COc1ccc(NC2CCCN(C(=O)CCc3cn[nH]c3)C2)cc1 (configuration not stated)
- AC50 [1]: 20 µM [rising, single point]

Compound: Cn1c(/N=C/c2c(O)ccc3ccccc23)nc2ccccc21
- AC50 [1]: 35.5 µM [falling, single point]

Compound: O=[N+]([O-])c1cccc(-c2nnc(-c3ccc4c(c3)OCO4)o2)c1
- AC50 [1]: 1.46 µM [rising, partial curve, poor fit]

Compound: CC(C)N(C(=O)[C@H]1C[C@H](CC(=O)NCCCN(C)C)C(=O)N2CCc3c([nH]c4ccc(Cl)cc34)[C@]12C)C(C)C
- AC50 [1]: 25.9 µM [falling, single point]

Compound: Cn1nc(-c2ccccc2)cc1NC(=O)c1cccs1
- AC50 [1]: 10 µM [rising, partial curve, poor fit]

Compound: O=C(Nc1cccc(F)c1)c1coc(=O)c(Br)c1
- AC50 [1]: 29.1 µM [rising, single point]

Compound: CCn1cc([N+](=O)[O-])c(C(=O)N2N=C3/C(=C/c4cccs4)CCCC3C2c2cccs2)n1 (configuration not stated)
- AC50 [1]: 20.6 µM [falling, single point]

Compound: O=C(Nc1ccccc1F)c1ccc([N+](=O)[O-])s1
- AC50 [1]: 15.8 µM [falling, single point]

Compound: CCN(CC(=O)NCc1ccc(Cl)cc1)C(=O)c1oc2ccccc2c1C
- AC50 [1]: 0.447 µM [falling, full curve, poor fit]

Compound: Nc1ncn(C2O[C@H](CO)[C@@H](O)[C@H]2O)c(=O)n1 (some centres not stated)
- AC50 [1]: 9.2 µM [rising, partial curve]

Compound: O=C(c1ccccc1)N1CCN(c2ncnc3c(-c4ccccc4)nsc23)CC1
- AC50 [1]: 35.5 µM [rising, single point]

Compound: CSc1ccccc1NC(=O)C1CC(c2c(F)cccc2Cl)=NO1 (configuration not stated)
- AC50 [1]: 1.26 µM [falling, partial curve, poor fit]

Compound: COCCOC(=O)C1=C(C)NC(=O)NC1c1cccc(F)c1 (configuration not stated)
- AC50 [1]: 35.5 µM [rising, single point]

Compound: COc1ccc(-c2csc3nc(-c4ccccc4OC)oc(=O)c23)cc1
- AC50 [1]: 3.16 µM [falling, full curve]

Compound: O=C(Nc1ccc(CN2CCOCC2)cc1)c1cc2ccccn2n1
- AC50 [1]: 13 µM [falling, partial curve, poor fit]

Compound: N/C(=N\OC(=O)c1cccc(Cl)c1)c1ccncc1
- AC50 [1]: 0.316 µM [rising, full curve, poor fit]

Compound: Cc1c(C=O)c(=O)n(-c2ccccc2)n1-c1ccccc1
- AC50 [1]: 0.731 µM [rising, full curve, poor fit]

Compound: Cc1ccc2c(CC(=O)NC3CCCc4ccccc43)coc2c1 (configuration not stated)
- AC50 [1]: 8.2 µM [falling, partial curve]

Compound: CC(C)Cn1c(N)c(C(=O)COC(=O)c2cccnc2Cl)c(=O)n(C)c1=O
- AC50 [1]: 12.6 µM [rising, partial curve, poor fit]

Compound: C=CCn1c(O)c(N=NC(=S)Nc2cccc(C)c2)c2ccccc21
- AC50 [1]: 1.84 µM [rising, full curve, poor fit]

Compound: Cc1csc(NC(=O)COCC(=O)O)c1-c1nc2ccccc2s1
- AC50 [1]: 35.5 µM [rising, single point]

Compound: O=c1[nH]c(/C(=N\O)c2ccccc2)no1
- AC50 [1]: 5.17 µM [falling, partial curve]
- AC50 [2]: 29.1 µM [falling, partial curve, poor fit]

Compound: Cc1cccc(C(=O)NNC(=O)c2ccccc2O)c1
- AC50 [1]: 2.51 µM [falling, full curve]

Compound: O=C(N/N=C/c1ccccn1)c1ccc(NC(=O)c2ccc(F)cc2)cc1
- AC50 [1]: 2.51 µM [falling, partial curve, poor fit]

Compound: CCN1CC2([N+](=O)[O-])CC=C(OC)C([N+](=O)[O-])(C1)C2 (configuration not stated)
- AC50 [1]: 23.1 µM [falling, single point]

Compound: Cc1cc(NC(=O)Nc2cccc(Cl)c2)n(-c2ccccn2)n1
- AC50 [2]: 15.8 µM [rising, single point]

Compound: Nc1nc(-c2ccccc2)c(C(=O)Nc2ccccc2)s1
- AC50 [1]: 35.5 µM [falling, partial curve, poor fit]
- AC50 [2]: 7.94 µM [falling, partial curve, poor fit]

Compound: Cn1c(O)c(N=NC(=O)c2ccccc2O)c2ccccc21
- AC50 [1]: 0.891 µM [falling, full curve]

Compound: O=c1[nH]n(-c2ccc(Cl)cc2)c(=O)c(Cl)c1Cl
- AC50 [1]: 20 µM [falling, single point]

Compound: Cc1ccc(C(=O)/C=C/c2ccc3c(c2)OCCO3)c(O)c1
- AC50 [1]: 35.5 µM [falling, single point]

Compound: COCCCNC(=O)c1ccc2nc(Cc3ccc(OC)cc3)oc2c1
- AC50 [1]: 12.6 µM [rising, partial curve]

Compound: NC(=O)Cn1nnc(-c2ccc(NC(=O)c3ccc(F)cc3)cc2)n1
- AC50 [1]: 12.6 µM [falling, single point]

Compound: Cc1[nH]oc(=O)c1N=Nc1ccccc1
- AC50 [1]: 29.1 µM [rising, single point]

Compound: COc1cc(-c2nc(C(=O)NCC3CCCO3)cc3c2[nH]c2ccccc23)cc(OC)c1OC (configuration not stated)
- AC50 [1]: 12.6 µM [rising, partial curve]
- AC50 [2]: 15.8 µM [falling, single point]

Compound: O=C1C(Cl)=C(N2CCCCC2)C(=O)N1Cc1ccccc1
- AC50 [1]: 2.31 µM [rising, full curve]

Compound: CCOC(=O)Nc1oc2ccccc2c(=O)c1CN1CCOCC1
- AC50 [1]: 0.631 µM [rising, full curve]

Compound: CCN(CC)C(=O)C(Oc1ccc(S(=O)(=O)N2CCCC2)cc1[N+](=O)[O-])c1ccccc1 (configuration not stated)
- AC50 [1]: 2.51 µM [falling, partial curve, poor fit]

Compound: COc1ccc(C(C)(C)C)cc1NC(=O)c1ccc2ncsc2c1
- AC50 [1]: 22.4 µM [falling, single point]

Compound: Cc1nc2ccc(C(=O)OCC(=O)N(C)c3ccccc3)cc2nc1C
- AC50 [1]: 0.082 µM [falling, full curve, poor fit]

Compound: CCN1C(=O)C(=O)N(CC(=O)c2cc(C)n(C3CC3)c2C)C1=O
- AC50 [1]: 20.6 µM [falling, partial curve]

Compound: COc1c(O)cc2oc(-c3ccc(O)cc3)cc(=O)c2c1O
- AC50 [1]: 35.5 µM [falling, single point]

Compound: CNCCCC12CCC(c3ccccc31)c1ccccc12
- AC50 [1]: 15.8 µM [falling, partial curve, poor fit] and 11.2 µM [falling, single point] and 14.6 µM [falling, partial curve, poor fit]

Compound: CC(=O)c1cccc(NC(=S)NC(=O)c2ccccc2Br)c1
- AC50 [1]: 13 µM [falling, partial curve, poor fit]

Compound: COc1ccc(OC)c(S(=O)(=O)n2ccnc2C)c1
- AC50 [1]: 0.164 µM [rising, full curve, poor fit]

Compound: COCCNC(=O)c1ccc2c3n(nc2c1)-c1ccc(C)cc1CO3
- AC50 [1]: 14.1 µM [falling, single point]

Compound: O=C(/C=C/c1ccccc1)Nc1cc(S(=O)(=O)N2CCOCC2)ccc1N1CCOCC1
- AC50 [1]: 18.4 µM [rising, single point]

Compound: CC(C)(CNC(=S)NCCc1ccccc1)CNC(=S)NCCc1ccccc1
- AC50 [1]: 29.1 µM [falling, single point]

Compound: COc1cc(C=NNc2ccc(S(=O)(=O)Nc3ccccc3C(=O)O)cc2[N+](=O)[O-])ccc1O
- AC50 [1]: 29.1 µM [rising, single point]
- AC50 [2]: 16.4 µM [falling, single point]

Compound: Oc1ccccc1-c1cc(-c2ccccc2)n[nH]1
- AC50 [1]: 16.4 µM [falling, single point]

Compound: Oc1ccc(-c2csc(-c3cccnc3)n2)c(O)c1
- AC50 [1]: 35.5 µM [falling, single point]

Compound: [O-]/C(=C(\C(=S)Nc1ccccc1F)[n+]1ccccc1)c1ccc(-c2ccccc2)cc1
- AC50 [1]: 7.08 µM [falling, partial curve, poor fit]

Compound: Cc1ccccc1S(=O)(=O)N1[C@@H](c2cccc(Cl)c2)C(C(=O)O)=CC[C@H]1c1ccc(Cl)cc1
- AC50 [1]: 10.3 µM [falling, partial curve, poor fit]

Compound: CCOC(=O)c1c(/N=C/C2=C(O)CC(C)(C)CC2=O)sc(C(C)=O)c1C
- AC50 [1]: 11.2 µM [rising, partial curve, poor fit]
